Results published in PMC6321010, “Interaction of the GTPase Elongation Factor Like-1 with the Shwachman-Diamond Syndrome Protein and Its Missense Mutations” (International Journal of Molecular Sciences, 2018).

What follows are substances tested against T1, yeast Sdo1, full-length, two-hybrid bait (yeast (S. cerevisiae)) (UniProt Q07953) (assay: two-hybrid; yeast two-hybrid; Sdo1 full-length or domains 2-3 as bait, domains of yeast EFL1 as the other fusion).
T1 sequence: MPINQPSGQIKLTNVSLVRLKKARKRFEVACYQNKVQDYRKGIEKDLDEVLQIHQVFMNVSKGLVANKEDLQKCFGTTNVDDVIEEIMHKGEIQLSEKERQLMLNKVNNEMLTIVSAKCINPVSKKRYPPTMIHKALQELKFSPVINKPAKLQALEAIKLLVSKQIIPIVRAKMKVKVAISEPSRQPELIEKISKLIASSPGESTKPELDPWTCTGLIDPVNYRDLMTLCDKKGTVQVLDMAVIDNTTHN

| binding | Substance |
| --- | --- |
| binds | yeast EFL1 domains I-II, two-hybrid fusion (domain or fragment) |
| no binding | yeast EFL1 domain I, two-hybrid fusion (domain or fragment) |
| binds | yeast EFL1 domain II, two-hybrid fusion (domain or fragment) |

Results are given in words; binding and its absence hold for the method and conditions named. Binding calls can cover weak binding; strength is not graded here.
